Measurements taken from US20260055187A1.
These are yes or no findings as the source states them, for the method shown. Binding calls can cover weak binding; strength is not graded here.

Molecular target: His-tagged extracellular domain of cynomolgus PD-1 (cynomolgus)
Test: ELISA, His-tagged extracellular domain on plate

B1: PD-1 antibody 3H4 (antibody, V domains shown)
VH: QIQLQQSGPELVKPGASVKISCKASGYTFTDYYINWVKQKPGQGLEWIGWIYPGSVNTKYNEKFRGKATLTVDTSSSTAYIQLSGLTSEDTAVYFCARYSNWFFDVWGAGTAVTVS
VL: DIVMTQSPSSLSASLGERVSLTCRASQEISGYLSWLQQKPDGTIKRLIYAASTLDSGVPKRFSGSRSGSDYSLSISSLESEDFADYYCLQYASYPYTFGGGTKLEIKR
Q: B1 was tested. Which binding did it give?
A: binds

B2: PD-1 antibody 1-17 (antibody, V domains shown)
VH: QVQLQESGPGVVKPSGTLSLTCAISGGSIGSGGSIRSTRWWSWVRQSPGKGLEWIGEIYHSGSTNYNPSLKSRVTISLDKSRNHFSLRLNSVTAADTAVYYCARQDYGDSGDWYFDLWGKGTMVTVSS
VL: NFMLTQPHSVSESPGKTVTISCTRSSGSIASNSVQWYQQRPGSSPTTVIYEDNQRPSGVPDRFSGSIDSSSNSASLTVSGLKTEDEADYYCQSSDSSAVVFGSGTKLTVL
Q: Which binding does the source give for B2 here?
A: binds

B3: PD-1 antibody 1-28 (antibody, V domains shown)
VH: EVQLVQSGAEVKKPGASVKVSCKASGYRFTSYGISWVRQAPGQGLEWMGWISAYNGNTNYAQKLQGRVTMTTDTSTNTAYMELRSLRSDDTAVYYCARDADYSSGSGYWGQGTLVTVSS
VL: SYELTQPPSVSVSPGQTARITCSGDALPKQYAYWYQQKPGQAPVMVIYKDTERPSGIPERFSGSSSGTKVTLTISGVQAEDEADYYCQSADNSITYRVFGGGTKVTVL
Q: How did the binding turn out when B3 was run?
A: binds

B4: PD-1 antibody 1-33 (antibody, V domains shown)
VH: QVQLVQSGAEVKKPGASVRVSCKASGYTLTSYYIHWVRQAPGQGLEWMGIINPRGATISYAQKFQGRVTMTRDTSTSTVYMELRNLKSEDTALYYCATAGIYGFDFDYWGRGTLVTVSS
VL: QSALTQPASVSGSPGQSITISCTGTSNDVGGYNYVSWYQHHPGKAPKLIIYDVTNRPSGVSDRFSGSKSGNTASLTISGLLAEDEGDYYCSSYTIVTNFEVLFGGGTKLTV
Q: B4 was tested. Which binding did it give?
A: binds
